# These are yes or no findings as the source states them, for the method shown. Some entries that bind do so weakly or less than the wild type.
# B1: human p30 (RAPL), wild type (protein)
# chain: MTVDSSMSSGYCSLDEELEDCFFTAKTTFFRNAQSKHLSKNVCKPVEETQRPPTLQEIKQKIDSYNTREKNCLGMKLSEDGTYTGFIKVHLKLRRPVTVPAGIRPQSIYDAIKEVNLAATTDKRTSFYLPLDAIKQLHISSTTTVSEVIQGLLKKFMVVDNPQKFALFKRIHKDGQVLFQKLSIADRPLYLRLLAGPDTEVLSFVLKENETGEVEWDAFSIPELQNFLTILEKEEQDKIQQVQKKYDKFRQKLEEALRESQGKPG
# Target: GTP-Rap1 (human)
# Assay: binding to GTP-Rap1, assay not detailed
binder,measurement,value
B1,binding,binds

# — US20070031415A1, “Regulation of interaction between rapl and rap1” (priority 2002, published 2007)
